Mtb growth Cornell: 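Whole-cell assay for inhibitors of Mycobacterium tuberculosis growth, labelled Cornell in the record; the read-out is not stated. The concentration is filed as 10 mM, unlikely as a test dose, so the dose is not known. Higher means stronger inhibition (inferred from two other growth screens of the library). About 53,000 compounds were tested under these conditions; 1.7% (about 900) showed 50% or more at least once.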
Mtb heat-shock: 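Assay on Mycobacterium tuberculosis, filed only as a heat shock assay from Cornell; the read-out is not stated. The concentration is filed as 10 mM, unlikely as a test dose, so the dose is not known. The record gives no direction; compounds that gave an IC50 in retests scored well above the rest, so higher reads as stronger inhibition. Size under these conditions: about 69,000 compounds, about 930 of them at 50% or above in at least one test.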

Values are the deposited “Percent Effect”, in %.
How 0% and 100% were set is not recorded. Most values in the screen are low, and negative values occur.
The compounds are a random part of those screened.
A dash means the value is not listed here; it may have been measured.

Compound | Mtb growth Cornell | Mtb heat-shock
O=C(C[S+]([O-])Cc1c(Cl)cccc1Cl)N1CCc2sccc2C1 (centres undefined) | - | -9.6%
[H][C@@]12CCN(Cc3ccc4c(c3)OCO4)C[C@]1([H])O[C@@H](C(=O)NC)C2 | 15.9% | -7.973%
O=C(c1cc[nH]n1)N(Cc1ccccc1)CC1CCC1 | 26.41% | 6.541%
CN(C(=O)Nc1cccc(C#N)c1)C1CCN(c2ccccn2)CC1 | - | 14.08%
CCNC(=O)N1CCC(NC(=O)NCCc2cccc(C)c2)C1 (centres undefined) | -12.38% | -5.1%
CC(=O)N1CCC(C(=O)N2CCOC(CC3CCCCC3)C2)CC1 (centres undefined) | -12.93% | -14.44%
O=C(NCC(O)c1ccc(F)cc1F)c1cccc(F)c1 (centres undefined) | - | -5.905%
O=C(O)C(F)(F)F.[H][C@]12OCCC[C@]1([H])N(C(=O)c1ccoc1C)C[C@H]2OCc1cccnc1 | 17.43% | -29.87%
Cc1nc2c(c(NCc3cc4ccccc4s3)n1)CCNCC2 | 31.59% | -9.753%
CCN(CC)CCNCc1cc(O)c2cc(C)ccc2n1 | 16.38% | 2.127%
CN1CCCC(Cc2cncc(Br)c2)CC1 (centres undefined) | -5.783% | 10.24%
CNC(=O)C1(CCCc2cnccn2)CCN1Cc1ccc(C)cc1 (centres undefined) | 23.31% | -12.28%
CN1CC2(CCN(C(=O)c3ccc4c(=O)n(C)cnc4c3)CC2)CC1=O | -23.76% | -5.771%
CCc1nccn1CCCNC(=O)c1cnn(-c2ccccc2OC)c1 | 25.6% | -4.285%
Cc1cc(C(=O)N2CCNC(c3ccccc3)C2)c2ccc(F)cc2n1 (centres undefined) | 25.14% | -14.44%
COc1cccc(OC)c1OCCn1c(C)c(C)oc1=O | - | -11.06%
O=C(Nc1cccnc1)Nc1cccc(CN2CCC(O)CC2)c1 | 7.451% | -21.11%
Cc1nn(C)c2c(N3CCSCC3)nc(C3CC3)nc12 | 2.275% | -14.05%
O=C(NCc1cnc2n1CCN(Cc1ccoc1)C2)c1ccno1.O=C(O)C(F)(F)F | -10.18% | 17.29%
O=C(c1cccc(O)n1)N1CCC(O)(CN2CCC(F)(F)CC2)C1 (centres undefined) | -47.32% | 18.09%
CCN(CC)S(=O)(=O)N(C)Cc1ccc2c(c1)OCCO2 | - | -5.55%
COc1ccc(CNCCC(=O)N2CCc3sccc3C2)cc1O | - | -23.45%
O=C(O)C(F)(F)F.[H][C@@]12CCCO[C@]1([H])[C@H](NC(=O)c1nccn1C)CN2Cc1ccoc1 | 14.73% | 9.665%
O=C(O)C(F)(F)F.[H][C@@]12CCN(C3CCOCC3)C[C@@]1([H])O[C@H](C(=O)N(C)C)C2 | - | -21.42%
O=C(O)C(F)(F)F.[H][C@@]12COC[C@]1(CNC(=O)N1CCCC1)CN(Cc1nccs1)C2 | - | -16.52%
O=C(c1ccc[nH]1)N1CCc2nnc(Cn3cccn3)n2CC1 | 7.897% | 0.2853%
CCn1ccnc1CN1CCN(CCOc2cccc(C#N)c2)CC1 | - | 3.466%
O=C(CSc1nnc(N2CCOCC2)s1)NC(=O)Nc1ccccc1 | 8.521% | 18.67%
CC(C)Cn1c(=O)n(CCn2cc(Cl)cn2)c2cc(C(=O)O)cnc21 | 31.42% | 18.93%
CN1CCCCC1CCC(=O)NCCCn1nccc1C1CC1 (centres undefined) | 9.386% | 7.885%
CNS(=O)(=O)c1cccc(C(C)NCc2cccc(OC)c2)c1 (centres undefined) | 9.578% | -9.611%
CC(CNC(=O)c1c[nH]nn1)Oc1ccc(Cl)cc1 (centres undefined) | -7.326% | -3.191%
COc1cccc(CC(=O)N2CC[C@@H](OC)[C@@H]2Cc2cccnc2)c1.O=C(O)C(F)(F)F | 19.2% | 11.27%
CC(=O)N1CCOC2(CCCN(Cc3ccc(Cl)c(C(F)(F)F)c3)C2)C1 (centres undefined) | 21.05% | 0.3063%
Cc1nccn1[C@@H]1CC[C@@H](NC(=O)CCCn2cccn2)[C@H]1O | -11.69% | -30.76%
CCOc1ccc(Cl)c(C(=O)NCCC(=O)Nc2ccncc2)n1 | - | 8.666%
CCOCC(O)CNc1cncc(Br)c1 (centres undefined) | - | 23.35%
CC(C)N(Cc1nccn1C)C(=O)c1cnc(O)cn1 | -23.17% | 14.44%
CCc1cc(N2CCC(NCCc3ccccc3F)CC2)nc(C)n1 | 4.299% | -14.41%
Cc1ncc(CN(C)Cc2nc3cc(Cl)ccc3n2C)s1 | 1.662% | 61.31%
CCc1ccccc1OCCCN(C)C(=O)C1CCCN1C(N)=O (centres undefined) | -14.23% | -8.291%
COc1ccc(CN(Cc2cncn2C)CC2CCCO2)cc1.O=C(O)CC(O)(CC(=O)O)C(=O)O (centres undefined) | -0.5493% | 1.542%
CCN(C)c1ccc(CNS(=O)(=O)C2CCOCC2)cc1F | 11.98% | -0.6774%
CC(=O)Nn1c(C)cc(CN2CCC(c3ccncc3)CC2)c1C | - | -10.79%
O=C(NC[C@]1(O)CN(Cc2ccc(F)cc2)C[C@H]1O)c1ccccn1 | -17.09% | -1.79%
COCCn1nc(C(=O)N2CCN(C)CC2C)ccc1=O (centres undefined) | 7.507% | -13.96%
O=C(CCc1ccccc1)C1CCCN(C(=O)c2cncc(Cl)c2)C1 (centres undefined) | 21.07% | 19.71%
CCCC(C(=O)NC1CCN(S(C)(=O)=O)CC1)c1ccccc1 (centres undefined) | 20.96% | 25.75%
O=C(CCC1CCCO1)NCc1ccc(Br)cc1F (centres undefined) | -19.9% | -2.785%
Cc1nc2n(n1)CC(NCCc1cccs1)CC2 (centres undefined) | -3.902% | 21.85%
Cc1cc(SCC(N)=O)nc(-c2ccc(F)cc2)n1 | 21.51% | 3.664%
CC1(C)CN(C(=O)c2ncc(F)cc2F)CCC1(O)CN1CCOCC1 (centres undefined) | 31.05% | 14.33%
COc1ccc(CCNCc2ccco2)cc1OC | 5.165% | 2.278%
O=C1CC(C(=O)Nc2nnc(-c3cccs3)[nH]2)c2ccccc2N1 (centres undefined) | 4.739% | -0.3537%
CCCn1ncc(-c2ccnc(NC3CC(C)(C)NC(C)(C)C3)n2)c1C | -32.04% | -32.44%
CC(C)(C)c1nnc(CN2CCC(c3cc4ccccc4[nH]3)CC2)o1 | - | -5.191%
O=C(O)C(F)(F)F.[H][C@@]12OCCN(C(=O)c3ccc(C)o3)[C@@]1([H])CC[C@H]2OCCN(C)C | -11.55% | 12.33%
O=C(NCCSCc1ccc(Br)s1)C1CCCN(c2cnccn2)C1 (centres undefined) | -22.48% | -14.09%
[H][C@@]12CN(C(=O)c3cnc(C)cn3)C[C@]1([H])C(=O)N(Cc1cccc(F)c1)C2 | 7.167% | -27.22%
CNC(=O)CCc1cc(C2CCNCC2)nc(C)n1.Cl.Cl | 0.3124% | -13.12%
COc1ccc(C(=O)N2CCCC2c2cnn(C)c2)cn1 (centres undefined) | -12.39% | -5.496%
CCSCCNC(=O)C(c1cccc(F)c1)N(C)C (centres undefined) | - | 2.693%
O=C(NCCN1CCCCC1=O)C1CCC(=O)N(C2CCCC2)C1 (centres undefined) | - | 4.691%
COCCn1ccc2c(NC(=O)c3n[nH]c4c3CCC4)cccc21 | 61.23% | 14.59%
CN(Cc1ccccc1)CC1(O)CCCN(CCC2CCCCC2)C1=O (centres undefined) | 6.911% | -4.787%
Fc1ccc(CNCCn2cccn2)c(Cl)c1 | 26.69% | -13.91%
COc1cnc(C2(O)CCN(C(=O)c3scnc3C)CC2)c(OC)n1 | - | -22.61%
COCCCC1(CO)CCCN(C(=O)c2cnc3c(c2)CCCC3)C1 (centres undefined) | - | -8.688%
CCc1noc(CN(Cc2cccs2)CC2CCCO2)n1 (centres undefined) | -2.113% | 4.187%
COc1ccc(C(=O)Nc2ccccc2-c2ccc(=O)n(C)n2)nn1 | 13.27% | 8.598%
COCCNC(=O)c1cc(C)nc(C2CCN(C)CC2)n1 | -9.69% | -1.484%
[H][C@]12CCCCN1CCC[C@H]2COc1ccc2c(c1)OCCO2 | - | -25.34%
Cn1cnc2c1CCN(Cc1nc(Cc3ccccc3)no1)C2 | 7.965% | 0.1516%
CCCN(Cc1cnn(C)c1)S(=O)(=O)c1ccc(F)c(C#N)c1 | 13.98% | -19.89%
Cc1ccc(S(=O)(=O)Nc2c(C)nc(N3CCCC3)nc2C)cc1 | 52.33% | 8.894%
CC(C(N)=O)N1CCN(c2ncc(Cl)cn2)CC1 (centres undefined) | -8.902% | 2.676%
O=C(c1ccc(C(F)(F)F)cc1)N1C[C@@H](CN2CCCCC2)[C@@H](CO)C1 | 1.07% | -3.973%
Cc1nc(C)c(C(=O)NCCOc2ccc(C(F)(F)F)cn2)o1 | - | -0.06023%
CC(C)n1ccnc1CN1C(=O)OC[C@@H]1c1ccccc1 | 8.734% | -9.731%
CC(C)Cc1noc(CNc2cccc(-c3nnnn3C)c2)n1 | -36.5% | -3.842%
Cc1ncccc1-c1cc2cccnc2n1CCCNC(=O)C(C)(C)C.Cl | 11.72% | 11.8%
O=C(O)C(F)(F)F.O=C(O)C(F)(F)F.[H][C@]12CCC(=O)N(c3cccnc3)[C@@]1([H])CCN2c1ncc(C)cn1 | 13.28% | -31.59%
CN(C)S(=O)(=O)N1CCC2(CC1)CC(Oc1ccccn1)CO2.O=C(O)C(F)(F)F (centres undefined) | 14.85% | -24.65%

9 of the entries, repeated:

{"compound": "CCN(CC)S(=O)(=O)N(C)Cc1ccc2c(c1)OCCO2", "Mtb heat-shock": -5.55}
{"compound": "CC(C)Cc1noc(CNc2cccc(-c3nnnn3C)c2)n1", "Mtb growth Cornell": -36.5, "Mtb heat-shock": -3.842}
{"compound": "CC(C)n1ccnc1CN1C(=O)OC[C@@H]1c1ccccc1", "Mtb growth Cornell": 8.734, "Mtb heat-shock": -9.731}
{"compound": "Cc1nc(C)c(C(=O)NCCOc2ccc(C(F)(F)F)cn2)o1", "Mtb heat-shock": -0.06023}
{"compound": "CN1CCCCC1CCC(=O)NCCCn1nccc1C1CC1", "stereo": "centres undefined", "Mtb growth Cornell": 9.386, "Mtb heat-shock": 7.885}
{"compound": "CCNC(=O)N1CCC(NC(=O)NCCc2cccc(C)c2)C1", "stereo": "centres undefined", "Mtb growth Cornell": -12.38, "Mtb heat-shock": -5.1}
{"compound": "COCCCC1(CO)CCCN(C(=O)c2cnc3c(c2)CCCC3)C1", "stereo": "centres undefined", "Mtb heat-shock": -8.688}
{"compound": "CC(C)Cn1c(=O)n(CCn2cc(Cl)cn2)c2cc(C(=O)O)cnc21", "Mtb growth Cornell": 31.42, "Mtb heat-shock": 18.93}
{"compound": "CNC(=O)C1(CCCc2cnccn2)CCN1Cc1ccc(C)cc1", "stereo": "centres undefined", "Mtb growth Cornell": 23.31, "Mtb heat-shock": -12.28}

From ChEMBL document CHEMBL3988442, “University of Dundee, Small-Polar-MMV Screening Library” (2021).